Results from publication PMC11021183.

Sequences of proteins named here, by UniProt entry; tags and fusion partners are left off. A change or cut given only in a name is not applied to a line headed by its entry.
UniProt Q2TAZ0: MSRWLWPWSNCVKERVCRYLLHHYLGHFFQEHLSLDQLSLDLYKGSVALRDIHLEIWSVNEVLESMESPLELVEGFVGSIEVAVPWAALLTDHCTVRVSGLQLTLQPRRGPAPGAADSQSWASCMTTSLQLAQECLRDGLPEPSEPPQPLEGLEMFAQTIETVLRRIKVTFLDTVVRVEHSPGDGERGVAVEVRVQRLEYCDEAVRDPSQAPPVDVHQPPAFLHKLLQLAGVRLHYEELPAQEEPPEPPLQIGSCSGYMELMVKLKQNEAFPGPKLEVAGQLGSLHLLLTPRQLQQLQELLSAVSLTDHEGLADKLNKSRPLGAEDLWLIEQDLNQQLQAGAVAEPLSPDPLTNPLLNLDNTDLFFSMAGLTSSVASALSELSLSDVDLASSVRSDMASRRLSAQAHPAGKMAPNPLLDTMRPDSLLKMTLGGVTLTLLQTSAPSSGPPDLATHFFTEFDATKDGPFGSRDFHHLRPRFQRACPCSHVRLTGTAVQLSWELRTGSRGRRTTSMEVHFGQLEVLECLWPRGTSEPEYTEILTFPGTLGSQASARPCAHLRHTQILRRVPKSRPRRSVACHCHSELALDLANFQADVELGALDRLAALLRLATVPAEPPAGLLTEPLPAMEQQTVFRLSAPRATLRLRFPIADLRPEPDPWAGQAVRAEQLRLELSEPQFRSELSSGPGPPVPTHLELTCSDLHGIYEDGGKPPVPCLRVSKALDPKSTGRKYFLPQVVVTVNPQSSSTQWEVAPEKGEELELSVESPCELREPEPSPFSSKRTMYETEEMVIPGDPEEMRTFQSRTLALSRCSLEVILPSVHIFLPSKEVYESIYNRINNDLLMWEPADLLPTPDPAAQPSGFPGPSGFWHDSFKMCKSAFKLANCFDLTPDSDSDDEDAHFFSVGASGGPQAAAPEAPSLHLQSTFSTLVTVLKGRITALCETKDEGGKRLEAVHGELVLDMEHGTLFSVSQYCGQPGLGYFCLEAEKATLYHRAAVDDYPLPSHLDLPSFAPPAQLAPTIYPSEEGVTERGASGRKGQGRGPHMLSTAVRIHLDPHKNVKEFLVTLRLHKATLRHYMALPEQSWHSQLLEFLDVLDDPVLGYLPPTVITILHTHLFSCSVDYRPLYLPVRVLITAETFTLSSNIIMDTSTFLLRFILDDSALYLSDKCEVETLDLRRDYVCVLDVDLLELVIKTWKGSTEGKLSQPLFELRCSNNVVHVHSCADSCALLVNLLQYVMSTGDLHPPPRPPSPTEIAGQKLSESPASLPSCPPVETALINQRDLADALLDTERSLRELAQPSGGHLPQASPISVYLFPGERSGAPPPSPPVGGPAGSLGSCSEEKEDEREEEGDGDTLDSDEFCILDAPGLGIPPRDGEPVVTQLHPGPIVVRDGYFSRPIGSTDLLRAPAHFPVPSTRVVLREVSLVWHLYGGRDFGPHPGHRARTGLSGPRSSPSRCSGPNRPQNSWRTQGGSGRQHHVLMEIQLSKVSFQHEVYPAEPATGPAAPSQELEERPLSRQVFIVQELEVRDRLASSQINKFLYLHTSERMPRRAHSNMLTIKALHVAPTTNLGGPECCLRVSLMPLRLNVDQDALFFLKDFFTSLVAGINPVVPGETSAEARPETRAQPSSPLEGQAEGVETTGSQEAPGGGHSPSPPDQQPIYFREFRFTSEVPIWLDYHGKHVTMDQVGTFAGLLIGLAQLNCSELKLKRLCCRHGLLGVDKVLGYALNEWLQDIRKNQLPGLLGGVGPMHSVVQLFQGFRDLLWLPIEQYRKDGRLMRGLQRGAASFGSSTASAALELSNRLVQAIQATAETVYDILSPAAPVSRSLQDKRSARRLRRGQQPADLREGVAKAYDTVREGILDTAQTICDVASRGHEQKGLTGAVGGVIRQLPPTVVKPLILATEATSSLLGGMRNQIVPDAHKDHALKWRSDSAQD

Tests used:
GFP-ATG2A-ΔMLD (human) = GFP-ATG2A-ΔMLD (human) (UniProt Q2TAZ0); test: co-IP; HeLa cells transfected with GFP-tagged constructs; lysis in 20 mM Tris–HCl pH 7.4, 100 mM NaCl, 0.5 mM EDTA, 0.5% NP40; GFP-TRAP beads (ChromoTek); endogenous partners found by western blot
GFP-ATG2A-YFS (human) = GFP-ATG2A-YFS (human) (UniProt Q2TAZ0); test: as above

B1: TOMM40 (endogenous) (protein, UniProt O96008 1-361)
chain: MGNVLAASSPPAGPPPPPAPALVGLPPPPPSPPGFTLPPLGGSLGAGTSTSRSSERTPGAATASASGAAEDGACGCLPNPGTFEECHRKCKELFPIQMEGVKLTVNKGLSNHFQVNHTVALSTIGESNYHFGVTYVGTKQLSPTEAFPVLVGDMDNSGSLNAQVIHQLGPGLRSKMAIQTQQSKFVNWQVDGEYRGSDFTAAVTLGNPDVLVGSGILVAHYLQSITPCLALGGELVYHRRPGEEGTVMSLAGKYTLNNWLATVTLGQAGMHATYYHKASDQLQVGVEFEASTRMQDTSVSFGYQLDLPKANLLFKGSVDSNWIVGATLEKKLPPLPLTLALGAFLNHRKNKFQCGFGLTIG
Q: B1 was tested. Which binding (GFP-ATG2A-ΔMLD (human)) did it give?
A: no binding

Q: What about the binding (GFP-ATG2A-YFS (human)) of the same binder?
A: binds

No constants are given. Whether binding was seen depends on the method and setting. In cells and extracts the contact can be indirect. For some assays here: Binding can be weak; no strength is given.
